Test results: patent publication US9675077B2, “Composition comprising antimicrobial metal ions and a quaternary cationic surfactant” (CONVATEC TECHNOLOGIES INC., priority 2011, dated 2017)

System: bacterial biofilms
Assay: MBEC (Minimum Biofilm Eradication Concentration) assay using the Calgary Biofilm Device
Format: cell-based
Settings: 0.01% silver, 0.1M acetate buffer

SMILES: CC(C)(C)CC(C)(C)c1ccc(OCCOCC[N+](C)(C)Cc2ccccc2)cc1 [benzethonium chloride]
- Surfactant concentration required to eradicate biofilm in the MBEC model (pH 5.5): 0.025%
- Surfactant concentration required to eradicate biofilm in the MBEC model (pH 6.2): ≤ 0.10%
- Surfactant concentration required to eradicate biofilm in the MBEC model (pH 6.9): > 0.25%
